The nature of the experiment: qHTS Assay for Lipid Storage Modulators in Drosophila S3 Cells.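 On cell number change: cells counted by Cell Tracker Red CMTPX staining in the red channel.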 As to conditions: BODIPY lipid droplet fluorescence, 18-24 h; for cell number change: measured here: cell count max response, cells fed with added oleic acid. Summed up:
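Drosophila S3 cells got compounds at several concentrations plus oleic acid (400 uM solution). Laser-scanning cytometry with 488 nm excitation read lipid droplets at 500-530 nm and cells at 575-640 nm. Percent activity was relative to 20 uM Triacsin C.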
On the technique in general: qHTS replaces the single test concentration by a dilution series.

Setting [1] is: measured here: cell number channel AC50, cells fed with added oleic acid.
Setting [2] is: measured here: lipid fluorescence (Fed channel) AC50, cells fed with added oleic acid.

The structures appear in SMILES notation. The list shows a part of the results. These are further read-outs of the screen, such as a control signal, another cell line or another target. No call is given for them. The list favours compounds with an active or inconclusive main result. The note in brackets gives the kind of curve behind each potency; many fits are weak.

As a reminder, the AC50 is the midpoint of the concentration-response curve, whichever way the signal moves. Read a high AC50 as activity only at high concentration. On to `Cc1nc([N+](=O)[O-])cn1-c1nc2ccccn2c1[N+](=O)[O-]`, for which the cell number change turned out to be 31.6%. In addition, the AC50 under setting [1] is 1.3 µM [rising, full curve, poor fit].
For the compound `O=C1OC(c2ccc3c(c2)OCO3)N(C(=O)c2ccc(Cl)c(Cl)c2)c2ccccc21` (stereo not given), the cell number change came to 21.3%. For the same compound, the half-maximal activity concentration (AC50) under setting [2] is 2.06 µM [rising, partial curve].
On to `COc1ccc(C(=O)N/C(=C\c2cn(C)c3ccccc23)C(=O)NCCN2CCOCC2)cc1OC`, for which the cell number change was determined as 13.7%. Further, the AC50 under setting [2] was 7.31 µM [falling, partial curve].
Turning to `CC(C)(CO)NC(=O)C(c1ccccc1)c1ccccc1`, the cell number change is -114%. For the same compound, the half-maximal activity concentration (AC50) under setting [1] was 23.1 µM [falling, partial curve]. Besides, the AC50 under setting [2] was 23.1 µM [falling, partial curve].
As for `O=C(Cc1c(F)cccc1Cl)Nc1ccncc1`, the cell number change was -22.5%. Further, the AC50 under setting [1] was 0.731 µM [falling, full curve]. For the same compound, under setting [2], the half-maximal activity concentration (AC50) was 6.51 µM [falling, single point].
`CC(C)(C)NC(=O)C(c1c[nH]c2ccccc12)N(C(=O)Cn1nnc(-c2ccc(F)cc2)n1)c1cccc(O)c1` (stereo not given): the cell number change is -5.62%. Besides, under setting [1], the AC50 was 6.51 µM [rising, single point]. The AC50 under setting [2] was 32.6 µM [falling, single point].
For the compound `Cc1ccc(NC(=O)CCC(=O)NNS(=O)(=O)c2ccccc2)cc1C`, the cell number change is -18%. In addition, the AC50 under setting [2] is 5.17 µM [falling, partial curve].
As for `C=C(C)COc1ccc(-c2nc(N)ncc2-c2ccc(Cl)cc2)c(O)c1`, the cell number change is -66%. The concentration at half-maximal activity (AC50) under setting [1] was 29.1 µM [falling, single point]. Moreover, under setting [2], the concentration at half-maximal activity (AC50) is 29.1 µM [falling, single point].
Turning to `Cc1cc(S(=O)(=O)NCCCN2CCOCC2)c(C)cc1Cl`, the cell number change was 19.7%.
`Cc1ccc(-c2nnc(SCC(=O)Nc3ccccc3N3CCOCC3)o2)cc1`: the cell number change was 39.6%. Besides, the AC50 under setting [1] was 0.731 µM [rising, full curve, poor fit]. The AC50 under setting [2] is 0.116 µM [rising, full curve, poor fit].
For `O=C(NCC1CCCO1)C1c2ccccc2C(=O)N1C1CCCCCCC1` (stereo not given), the cell number change is -27.6%. The concentration at half-maximal activity (AC50) under setting [2] was 29.1 µM [falling, single point].
As for `COc1ccc(NC(=O)N2CCCCCC2)cc1OC`, the cell number change was 28.7%.
On to `Oc1ccccc1/C=N/c1c(-c2ccco2)nc2ccccn12`, for which the cell number change amounted to 6.23%. Moreover, the AC50 under setting [2] was 5.17 µM [rising, partial curve].
Take `CCCCc1ccc(NC(=O)Nc2c(C)n(C)n(-c3ccccc3)c2=O)cc1`: the cell number change is 31%.
Take `CC1CC2(C)CC(C)C1(COC(=O)Nc1ccccc1)CO2` (stereo not given): the cell number change stood at 9.32%. The half-maximal activity concentration (AC50) under setting [2] is 0.00461 µM [rising, full curve, poor fit].
`COc1cc(Cl)c(C)cc1NC(=O)COC(=O)/C=C/c1c(C)nn(C2CCS(=O)(=O)C2)c1Cl` (stereo not given): the cell number change was determined as 4.83%. The AC50 under setting [2] was 4.11 µM [falling, single point].
On to `COc1ccc2c(c1)cc(C(=O)O)n2C`, for which the cell number change is -9.92%. Under setting [2], the AC50 is 2.91 µM [falling, partial curve].
In the case of `CCOC(=O)Cn1c(=O)cc(C)c2cccc(C)c21`, the cell number change was 8.46%. Further, under setting [2], the AC50 was 2.06 µM [falling, partial curve].
On to `Cc1ccc(NC(=O)CSc2ccc(C(N)=O)cc2[N+](=O)[O-])cc1C`, for which the cell number change stood at 53.1%. The AC50 under setting [2] was 35.5 µM [rising, single point].
In the case of `Nc1cc(-c2ccc(Cl)cc2)nn1S(=O)(=O)c1ccc(Cl)cc1`, the cell number change is 45.7%. Also, the concentration at half-maximal activity (AC50) under setting [1] is 4.11 µM [rising, full curve]. For the same compound, under setting [2], the concentration at half-maximal activity (AC50) was 14.6 µM [falling, partial curve].
With `COc1cc(C(=O)Oc2cccc(/C=N/NC(=O)c3cccnc3)c2)cc(OC)c1OC`, the cell number change is 40.8%. Besides, under setting [1], the half-maximal activity concentration (AC50) was 2.06 µM [rising, partial curve, poor fit].
On to `CC1(C)Cc2cccc(OCC(=O)OCC(=O)NCc3ccccc3)c2O1`, for which the cell number change was -10.8%.
As to `Clc1ccc(-c2nnc3c4ccccc4nc(N4CCOCC4)n23)cc1Cl`, the cell number change is -3.45%.
Turning to `CCCCNC(=O)c1cc(-c2ccc(OC)c(OC)c2)on1`, the cell number change is -18.8%. Moreover, the half-maximal activity concentration (AC50) under setting [2] was 0.461 µM [rising, full curve, poor fit].
As to `CCCc1cc(=O)oc2cc(OCC(=O)N3CCC(C(N)=O)CC3)ccc12`, the cell number change is 12.5%. Further, under setting [2], the AC50 was 29.1 µM [rising, single point].
For the compound `COC(=O)c1cc(NC(=S)NC(=O)c2ccccc2)ccc1N1CCOCC1`, the cell number change is 8.8%. For the same compound, the AC50 under setting [1] is 1.3 µM [rising, full curve, poor fit]. In addition, the half-maximal activity concentration (AC50) under setting [2] was 0.92 µM [rising, full curve, poor fit].
Regarding `COCC(C)n1c(C)cc(C(=O)Cn2nc(C(=O)O)c3ccccc3c2=O)c1C` (stereo not given), the cell number change is 18.5%.
On to `COc1ccc(NS(=O)(=O)c2ccc(C)c(C(=O)NCC(c3ccco3)N(C)C)c2)cc1` (stereo not given), for which the cell number change came to 8.94%. In addition, the AC50 under setting [2] was 6.51 µM [rising, single point].
Regarding `CCOc1ccc(NC(=O)CN(C)C(=O)CCCc2nc3ccccc3c(=O)[nH]2)cc1OCC`, the cell number change is 28.5%. For the same compound, the AC50 under setting [2] was 8.2 µM [rising, partial curve, poor fit].
With `CCOCCCn1c(C)nc2c(c1=O)c1nc3ccccc3nc1n2CCC1=CCCCC1`, the cell number change was -38.9%. Also, the AC50 under setting [1] was 29.1 µM [falling, single point]. The AC50 under setting [2] was 20.6 µM [rising, single point].
For the compound `CC(C)CNC(=O)COC(=O)CCC(=O)c1ccc(F)cc1`, the cell number change is -14.8%. For the same compound, under setting [1], the concentration at half-maximal activity (AC50) is 0.231 µM [falling, full curve]. Also, the half-maximal activity concentration (AC50) under setting [2] is 0.231 µM [falling, full curve, poor fit].
On to `Cc1ccc(-n2c(Cn3c(C)nc4ccccc43)n[nH]c2=S)cc1`, for which the cell number change worked out at 19.5%. Further, under setting [2], the AC50 was 0.82 µM [rising, full curve, poor fit].
Consider `Cc1ccc(NC(=S)N2CCC(NC(=O)c3ccc(C)cc3)CC2)cc1`, for which the cell number change was found to be 10.3%. Besides, the concentration at half-maximal activity (AC50) under setting [2] was 29.1 µM [rising, single point].
As to `O=C(C/C=N\O)Nc1ccc(Oc2ccccc2)cc1`, the cell number change was -42.2%. For the same compound, the concentration at half-maximal activity (AC50) under setting [2] is 18.4 µM [falling, single point].
In the case of `CCn1c(C)cc(/C=C2\NC(=O)N(Cc3ccccc3)C2=O)c1C`, the AC50 under setting [1] was 0.58 µM [rising, single point] and the half-maximal activity concentration (AC50) under setting [2] is 2.91 µM [rising, partial curve].
For `COc1ccc(-c2cc(C(=O)Nc3c(C)nn(Cc4ccccc4Cl)c3C)no2)cc1`, the cell number change was -1.59%. Also, the AC50 under setting [2] is 0.231 µM [rising, full curve, poor fit].
In the case of `O=C(O)CC/C(=N\Nc1ccccc1[N+](=O)[O-])c1cccs1`, the cell number change was -61.3%. For the same compound, the AC50 under setting [2] is 0.00461 µM [rising, full curve, poor fit].
Consider `CCC1NC(=O)c2cc(S(N)(=O)=O)c(Cl)cc2N1` (stereo not given), for which the cell number change is -25.4%. For the same compound, the AC50 under setting [2] is 18.4 µM [falling, partial curve].
As to `CC(C)CNS(=O)(=O)c1cc(C(=O)O)c(Cl)cc1Cl`, the cell number change was -37.7%. In addition, under setting [2], the AC50 was 18.4 µM [falling, single point].
In the case of `Cc1ccc(S(=O)(=O)Nc2cc(=O)[nH]c(SCC(=O)Nc3ccccc3Cl)n2)cc1`, the cell number change worked out at 10.4%. Besides, the AC50 under setting [2] was 0.00461 µM [rising, full curve, poor fit].
Regarding `Cc1cc(NC(=O)CCSc2nc(-c3ccco3)cc(C(F)(F)F)n2)no1`, the cell number change stood at 12.6%. Under setting [2], the AC50 is 1.03 µM [rising, full curve].
Regarding `CCN(CC)CCCNC(=S)N1CCN(c2nc(-c3ccccc3)cs2)CC1`, the cell number change was -27.5%. Moreover, the AC50 under setting [2] was 5.17 µM [falling, partial curve, poor fit].
With `CCOC(=O)CSc1n[nH]c(NC(=O)NC(C)C)n1`, the AC50 reads like this: under setting [1], 0.461 µM [falling, full curve, poor fit]; under setting [2], 2.06 µM [falling, partial curve].
`CCOC(=O)c1c(-c2ccccc2)csc1NC(=O)CSc1nnc(C)s1`: the cell number change is -1.23%. For the same compound, under setting [2], the half-maximal activity concentration (AC50) is 2.59 µM [rising, full curve, poor fit].
As to `COc1ccccc1CN1CCC(CNS(=O)(=O)c2cc(-c3onc(C)c3C)ccc2OC)CC1`, the cell number change was determined as 13.4%. Moreover, the half-maximal activity concentration (AC50) under setting [2] was 0.731 µM [rising, full curve].
In the case of `C=CCN(c1ccccc1Cl)S(=O)(=O)c1cccc(C(=O)OCC(=O)N(C)C2CCS(=O)(=O)C2)c1` (stereo not given), the cell number change was -1.76%. Under setting [2], the AC50 is 6.51 µM [falling, single point].
As for `Cc1cc(C(=O)CSc2ncccn2)c(C)n1Cc1ccco1`, the cell number change was found to be 20%. The AC50 under setting [1] is 1.64 µM [rising, partial curve, poor fit].
With `CC(C)NC(=O)c1cc2n(n1)C(C(F)(F)F)CC(c1ccco1)N2` (stereo not given), the cell number change was -35.4%. The concentration at half-maximal activity (AC50) under setting [1] was 29.1 µM [falling, single point].
In the case of `O=C(/C=C/c1ccc(Cl)cc1Cl)N(Cc1ccccc1)C1CCS(=O)(=O)C1` (stereo not given), the AC50 runs as follows: under setting [1], 0.731 µM [rising, full curve, poor fit]; under setting [2], 14.6 µM [rising, partial curve].
Turning to `Cc1cc(C(=O)CSc2nnc(N)s2)c(C)n1CCc1ccc(Cl)cc1`, the cell number change is -19.4%. Besides, the AC50 under setting [2] was 0.184 µM [rising, full curve, poor fit].
On to `CC1(C)COC(c2cccc(C3=NC(C)(C)CO3)n2)=N1`, for which the AC50 under setting [2] is 18.4 µM [rising, single point].
In the case of `CC(C)NC(=O)COc1ccc(OCc2ccccc2)cc1`, under setting [1], the AC50 was 6.51 µM [falling, single point].
On to `CC12CC(NC(=O)N1c1cccc(C(=O)NCc3ccccc3)c1)c1ccccc1O2` (stereo not given), for which the cell number change is -14.7%. The AC50 under setting [2] was 29.1 µM [falling, single point].
On to `COc1ccc(C(=O)CN2C(=O)NC(C)(c3ccccc3)C2=O)cc1OC` (stereo not given), for which the cell number change was -8.89%. The half-maximal activity concentration (AC50) under setting [2] was 6.51 µM [falling, single point].
In the case of `Cc1ccccc1-c1nnc(CN2CCN(C(=O)c3ccco3)CC2)o1`, the cell number change came to 44.4%. Besides, the AC50 under setting [1] is 29.1 µM [rising, single point].
For `COc1ccccc1N1CCN(CCCCNC(=O)c2ccc3ccccc3c2)CC1`, the cell number change is 21.5%. Besides, the half-maximal activity concentration (AC50) under setting [2] is 29.1 µM [rising, single point].
On to `O=c1cc(CSc2nnnn2-c2ccc(O)cc2)nc2sccn12`, for which the cell number change is 27.2%. The AC50 under setting [2] is 6.51 µM [rising, single point].

The record behind these values is PubChem BioAssay AID2685 (National Center for Advancing Translational Sciences (NCATS), 2010).
